This passage reports binding results from PMC10648158.

By UniProt entry, the sequences of proteins in these tests, tags left out. Where a name states a change or a piece, a line headed by the entry shows the natural chain unless it says otherwise.
UniProt P02454: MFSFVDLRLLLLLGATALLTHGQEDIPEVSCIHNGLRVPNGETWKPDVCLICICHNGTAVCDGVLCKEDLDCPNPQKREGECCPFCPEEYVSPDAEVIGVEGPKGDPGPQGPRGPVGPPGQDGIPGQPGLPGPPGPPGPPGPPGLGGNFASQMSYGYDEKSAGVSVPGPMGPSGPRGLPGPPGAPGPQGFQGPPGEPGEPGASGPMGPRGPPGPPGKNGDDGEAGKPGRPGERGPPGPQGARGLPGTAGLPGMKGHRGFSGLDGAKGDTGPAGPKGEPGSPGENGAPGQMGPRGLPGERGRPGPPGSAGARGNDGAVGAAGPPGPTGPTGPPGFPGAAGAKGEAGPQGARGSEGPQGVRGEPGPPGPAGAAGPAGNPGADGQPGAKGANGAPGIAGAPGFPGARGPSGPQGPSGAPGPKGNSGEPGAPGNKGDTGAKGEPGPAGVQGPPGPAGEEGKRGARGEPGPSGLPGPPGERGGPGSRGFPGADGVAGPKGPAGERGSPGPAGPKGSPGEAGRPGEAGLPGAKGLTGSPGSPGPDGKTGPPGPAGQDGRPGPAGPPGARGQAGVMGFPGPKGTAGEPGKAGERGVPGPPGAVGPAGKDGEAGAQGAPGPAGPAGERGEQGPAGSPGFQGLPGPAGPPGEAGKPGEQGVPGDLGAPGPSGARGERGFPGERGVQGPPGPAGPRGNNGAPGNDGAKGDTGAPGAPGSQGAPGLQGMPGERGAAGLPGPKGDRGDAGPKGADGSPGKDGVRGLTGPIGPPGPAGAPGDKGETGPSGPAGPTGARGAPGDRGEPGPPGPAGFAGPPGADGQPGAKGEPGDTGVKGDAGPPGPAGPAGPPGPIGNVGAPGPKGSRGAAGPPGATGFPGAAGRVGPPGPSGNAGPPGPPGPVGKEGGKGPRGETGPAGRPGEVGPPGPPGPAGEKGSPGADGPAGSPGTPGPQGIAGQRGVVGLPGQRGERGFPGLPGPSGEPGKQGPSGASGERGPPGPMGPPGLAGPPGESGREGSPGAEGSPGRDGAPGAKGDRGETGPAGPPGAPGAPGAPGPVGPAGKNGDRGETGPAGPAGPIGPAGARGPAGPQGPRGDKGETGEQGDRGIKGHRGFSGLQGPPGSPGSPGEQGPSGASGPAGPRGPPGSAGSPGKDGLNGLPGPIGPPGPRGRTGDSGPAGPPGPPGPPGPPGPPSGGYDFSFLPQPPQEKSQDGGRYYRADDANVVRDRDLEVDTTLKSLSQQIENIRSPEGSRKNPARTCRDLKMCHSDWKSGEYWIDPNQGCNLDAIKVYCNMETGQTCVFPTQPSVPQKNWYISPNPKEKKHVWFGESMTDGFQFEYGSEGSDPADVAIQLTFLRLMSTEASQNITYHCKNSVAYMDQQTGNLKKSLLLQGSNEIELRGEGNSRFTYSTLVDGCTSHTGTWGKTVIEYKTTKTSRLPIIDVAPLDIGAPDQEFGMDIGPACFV
UniProt P02466: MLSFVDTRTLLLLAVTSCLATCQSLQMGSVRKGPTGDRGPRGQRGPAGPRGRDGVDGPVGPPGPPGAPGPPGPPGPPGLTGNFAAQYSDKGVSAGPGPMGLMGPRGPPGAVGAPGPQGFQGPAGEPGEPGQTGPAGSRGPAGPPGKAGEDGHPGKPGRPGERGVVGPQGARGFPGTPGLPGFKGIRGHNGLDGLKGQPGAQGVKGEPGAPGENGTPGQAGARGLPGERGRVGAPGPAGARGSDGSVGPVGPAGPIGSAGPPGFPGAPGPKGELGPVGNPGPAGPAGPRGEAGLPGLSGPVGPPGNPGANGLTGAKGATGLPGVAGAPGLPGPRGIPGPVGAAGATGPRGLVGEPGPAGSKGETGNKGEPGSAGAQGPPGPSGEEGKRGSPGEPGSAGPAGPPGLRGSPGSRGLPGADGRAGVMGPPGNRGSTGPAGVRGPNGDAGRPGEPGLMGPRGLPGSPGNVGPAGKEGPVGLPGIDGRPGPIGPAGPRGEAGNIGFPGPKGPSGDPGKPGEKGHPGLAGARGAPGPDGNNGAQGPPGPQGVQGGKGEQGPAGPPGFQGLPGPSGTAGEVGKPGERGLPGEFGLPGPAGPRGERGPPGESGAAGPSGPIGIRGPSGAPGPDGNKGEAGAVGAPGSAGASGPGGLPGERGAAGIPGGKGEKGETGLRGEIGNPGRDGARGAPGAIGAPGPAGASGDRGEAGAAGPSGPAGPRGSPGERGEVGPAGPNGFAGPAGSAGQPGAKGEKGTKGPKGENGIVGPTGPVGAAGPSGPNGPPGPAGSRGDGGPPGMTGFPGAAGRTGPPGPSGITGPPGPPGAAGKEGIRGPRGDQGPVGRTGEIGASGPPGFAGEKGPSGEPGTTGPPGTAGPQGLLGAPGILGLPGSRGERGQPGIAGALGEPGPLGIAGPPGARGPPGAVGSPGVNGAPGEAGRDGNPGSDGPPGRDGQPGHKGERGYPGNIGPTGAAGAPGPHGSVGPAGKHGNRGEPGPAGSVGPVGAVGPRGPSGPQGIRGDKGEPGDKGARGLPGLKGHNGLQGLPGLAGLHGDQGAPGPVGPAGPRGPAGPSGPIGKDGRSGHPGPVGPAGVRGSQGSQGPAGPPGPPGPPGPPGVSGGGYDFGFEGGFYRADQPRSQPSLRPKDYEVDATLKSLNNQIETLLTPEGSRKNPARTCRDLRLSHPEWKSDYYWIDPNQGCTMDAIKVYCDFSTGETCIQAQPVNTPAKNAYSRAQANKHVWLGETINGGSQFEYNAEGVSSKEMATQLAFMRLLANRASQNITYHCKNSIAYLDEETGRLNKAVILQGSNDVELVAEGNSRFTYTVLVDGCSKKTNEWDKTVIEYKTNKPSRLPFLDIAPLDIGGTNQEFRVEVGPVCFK

These are yes or no findings as the source states them, for the method shown. Some results given as binding are weak or reduced against the parent protein; the word gives no strength.

Test [1] concerns the target T1, rat tail Collagen-1 (rat) (UniProt P02454+P02466). The experiment in a line: ELISA; Collagen-1 binding assay as a1, proteins pre-incubated with 100 μM ATPγS; both purified.
Test [2] concerns the target T1, rat tail Collagen-1 (rat). Kind of test: ELISA; Collagen-1 binding assay: 96-well plate coated with polymerised, dried rat tail Collagen-1 (50 μL of 0.02 μg/μL); biotinylated protein in PBS for 1 h at RT; streptavidin-HRP and TMB, absorbance at 607 nm; Kd by non-linear regression, one-site total binding; both purified.

For the substance “FLAG-Hsp90α D93A (from UniProt P07900 1-732)”, the binding result in test [1] and in test [2] was “binds” throughout. On to “FLAG-Hsp90α E47A (from UniProt P07900 1-732)”, for which the binding result in test [1] and in test [2] was “binds” throughout. With “FLAG-Hsp90α WT (from UniProt P07900 1-732)”, the binding entry in test [1] is “binds”.

As for “GST-Hsp90-C (623-732) (from UniProt P07900 623-732) (domain or fragment)”, the binding result in test [2] is given as “binds weakly”. Take “GST-Hsp90-M (272-617) (from UniProt P07900 272-617) (domain or fragment)”: in test [2], the binding result is given as “binds weakly”. For the substance “GST-Hsp90-N (9-236) (from UniProt P07900 9-236) (domain or fragment)”, in test [2], the binding entry was “binds”.
